The list shows a part of the results. These are raw signals, not scaled to a control.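 First-pass screen: polymyxin B was added at a level that permeabilizes the Salmonella outer membrane while sparing the inner membrane. DMSO wells, with and without polymyxin B, defined maximum growth. Because plates differed from one another, each plate's data were ranked separately and the compounds with the lowest OD600 were carried forward as hits.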
Test system: Salmonella enterica serovar Typhimurium SL1344
Experiment: bacterial growth OD600 after 18 h with compound and polymyxin B; higher = more bacterial growth (less inhibition)
Details: 50 µM, Mueller-Hinton broth

SMILES | bacterial growth OD600 (polymyxin B 1 µg/mL) | bacterial growth OD600 (polymyxin B 0.75 µg/mL)
COc1ccc(OC2CCN(C3CCCC3)CC2)c(C(=O)N2CCN(CC3CC3)CC2)c1 | 0.877 | –
CCOC(=O)C1(Cc2ccc(F)cc2)CCCN(C(=O)C(C)(C)C)C1 (stereo unspecified) | 0.666 | –
FC(F)Oc1ccc(CNCc2cccnc2N2CCOCC2)cc1 | 0.958 | –
COc1cc(-c2nc(CN3CCSCC3)c(C)o2)ccc1F | 0.754 | –
COc1ccc(C(=O)N2CCCC(Nc3ccc(F)c(F)c3)C2)c(OC)n1 (stereo unspecified) | 0.86 | –
Cc1nnc(-c2cccc(NC(=O)C3CCCCN3C(=O)C3CCC3)c2)s1 (stereo unspecified) | 0.996 | –
Cc1nc2ccccn2c1CN(C)C(=O)c1ccc2nc(Cc3ccccc3F)oc2c1 | – | 0.671
COc1ccccc1N1CCN(C2CCCN(Cc3ccccc3-c3ccco3)C2)CC1 (stereo unspecified) | 0.937 | –
CN(Cc1nc(COc2ccccc2)no1)CC1Cc2ccccc2O1 (stereo unspecified) | 1 | –
CC(NC(=O)c1coc(COc2cccc(C(F)(F)F)c2)n1)c1ccncn1 (stereo unspecified) | 0.98 | –
O=C1CCC(CCC(=O)N2CCCC(C(=O)c3ccccc3)C2)(Cc2ccc3ccccc3c2)N1 (stereo unspecified) | – | 0.834
CCOc1ccc2nc(N3CCCC3C(=O)NCCc3nc(-c4cccnc4)no3)nc(C)c2c1 (stereo unspecified) | – | 0.843
Cc1ccc(C(=O)N2CCCC(Nc3ccc(F)cc3)C2)cc1 (stereo unspecified) | 0.75 | –
CC(C)N(Cc1nccn1C)C(=O)C1CCC(=O)N(CCCN2CCOCC2)C1 (stereo unspecified) | 0.971 | –
CC(C)Oc1cccc(C(=O)C2CCCN(Cc3cccn3-c3nccs3)C2)c1 (stereo unspecified) | 0.699 | –
O=C(c1ccc(Cl)cc1)N1CCOc2ccc(CN3CCN(c4ccccc4)CC3)cc2C1 | – | 0.005
CN(Cc1ccncn1)C(=O)CC(c1cccc(O)c1)c1cccc(Cl)c1 (stereo unspecified) | 0.757 | –
COc1cc(N2CCCC(CCC(=O)N(C)CCc3ccccn3)C2)nc(OC)n1 (stereo unspecified) | 0.978 | –
COCCCC1CCN(Cc2c[nH]nc2-c2cccc3ccccc23)CC1 | 0.959 | –
Cc1cccc(CNC(=O)c2coc(COc3ccccc3)n2)c1 | – | 0.005
CC(C)Oc1ccc(CN2CCC(CO)(Cc3ccccc3Cl)CC2)cc1CO | 0.902 | –

2 records drawn at random from those above:
SMILES | bacterial growth OD600 (polymyxin B 1 µg/mL) | bacterial growth OD600 (polymyxin B 0.75 µg/mL)
Cc1nnc(-c2cccc(NC(=O)C3CCCCN3C(=O)C3CCC3)c2)s1 (stereo unspecified) | 0.996 | –
O=C1CCC(CCC(=O)N2CCCC(C(=O)c3ccccc3)C2)(Cc2ccc3ccccc3c2)N1 (stereo unspecified) | – | 0.834

— the supplement of paper PMC12889115
